Measured values as given in article PMC4087297, “Purification and Characterization of Catalase from Marine Bacterium Acinetobacter sp. YS0810” (BioMed Research International, 2014).
Where a name gives a salt, the structure may show the parent alone.

System: T1, YS0810CAT
T1 construct: gene catalase; native purification from marine isolate (Qingdao coast)
Assay: H2O2 decomposition, absorbance at […] nm
Format: biochemical, Acinetobacter sp. YS0810
Settings: 30 min preincubation in 50 mM potassium phosphate pH 7.0, 25 °C, 30 mM H2O2

Row | Structure (SMILES) | Inhibition (r/%) (1000 µM) | Inhibition (r/%) (50 µM)
1 | Nc1nc[nH]n1 [3-amino-1,2,4-triazole] | 86% | 
2 | NO [hydroxylamine hydrochloride] |  | 78%
